Experimental data published in paper doi:10.1101/2024.03.03.583230.

Protein sequences, listed by entry. Tags and fused reporters are not part of them. Residues count along the entry.
UniProt P11166: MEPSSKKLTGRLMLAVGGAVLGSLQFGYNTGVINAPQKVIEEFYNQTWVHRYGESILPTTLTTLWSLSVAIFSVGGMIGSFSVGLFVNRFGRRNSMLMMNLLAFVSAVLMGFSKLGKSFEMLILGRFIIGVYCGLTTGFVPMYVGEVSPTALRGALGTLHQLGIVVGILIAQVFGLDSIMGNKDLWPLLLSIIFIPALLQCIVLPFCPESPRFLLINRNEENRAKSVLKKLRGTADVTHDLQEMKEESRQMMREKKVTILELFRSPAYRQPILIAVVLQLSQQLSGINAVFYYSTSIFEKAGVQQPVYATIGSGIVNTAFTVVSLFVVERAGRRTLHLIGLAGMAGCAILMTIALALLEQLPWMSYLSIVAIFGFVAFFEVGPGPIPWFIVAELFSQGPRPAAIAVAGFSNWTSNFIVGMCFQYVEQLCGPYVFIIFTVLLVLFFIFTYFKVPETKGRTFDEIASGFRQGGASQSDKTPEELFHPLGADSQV
UniProt P30530, residues 26-894: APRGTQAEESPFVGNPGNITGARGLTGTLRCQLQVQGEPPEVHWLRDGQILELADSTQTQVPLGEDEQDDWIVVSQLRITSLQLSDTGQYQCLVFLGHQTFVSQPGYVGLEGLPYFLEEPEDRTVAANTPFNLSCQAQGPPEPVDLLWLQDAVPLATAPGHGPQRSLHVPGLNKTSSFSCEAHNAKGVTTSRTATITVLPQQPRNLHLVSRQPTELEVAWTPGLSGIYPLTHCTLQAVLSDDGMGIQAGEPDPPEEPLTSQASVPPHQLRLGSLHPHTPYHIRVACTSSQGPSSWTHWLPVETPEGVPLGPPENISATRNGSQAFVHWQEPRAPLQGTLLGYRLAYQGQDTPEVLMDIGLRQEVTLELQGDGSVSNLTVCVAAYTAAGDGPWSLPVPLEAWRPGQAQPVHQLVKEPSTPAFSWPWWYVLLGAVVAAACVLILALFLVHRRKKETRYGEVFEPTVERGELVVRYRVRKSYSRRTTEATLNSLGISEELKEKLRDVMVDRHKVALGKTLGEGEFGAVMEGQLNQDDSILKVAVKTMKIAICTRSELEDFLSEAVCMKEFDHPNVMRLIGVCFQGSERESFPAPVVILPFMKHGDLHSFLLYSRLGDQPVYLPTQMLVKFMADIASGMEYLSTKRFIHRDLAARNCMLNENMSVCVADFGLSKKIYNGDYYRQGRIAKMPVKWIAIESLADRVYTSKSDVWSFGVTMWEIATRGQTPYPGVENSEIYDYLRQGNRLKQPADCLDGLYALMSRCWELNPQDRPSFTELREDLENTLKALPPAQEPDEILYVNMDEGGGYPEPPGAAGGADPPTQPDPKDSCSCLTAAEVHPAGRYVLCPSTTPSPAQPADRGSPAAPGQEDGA

T1: Flag-labeled PFKP (Phosphofructokinase, Platelet Type), 3x Flag tag (human) (UniProt Q01813)
T1 sequence: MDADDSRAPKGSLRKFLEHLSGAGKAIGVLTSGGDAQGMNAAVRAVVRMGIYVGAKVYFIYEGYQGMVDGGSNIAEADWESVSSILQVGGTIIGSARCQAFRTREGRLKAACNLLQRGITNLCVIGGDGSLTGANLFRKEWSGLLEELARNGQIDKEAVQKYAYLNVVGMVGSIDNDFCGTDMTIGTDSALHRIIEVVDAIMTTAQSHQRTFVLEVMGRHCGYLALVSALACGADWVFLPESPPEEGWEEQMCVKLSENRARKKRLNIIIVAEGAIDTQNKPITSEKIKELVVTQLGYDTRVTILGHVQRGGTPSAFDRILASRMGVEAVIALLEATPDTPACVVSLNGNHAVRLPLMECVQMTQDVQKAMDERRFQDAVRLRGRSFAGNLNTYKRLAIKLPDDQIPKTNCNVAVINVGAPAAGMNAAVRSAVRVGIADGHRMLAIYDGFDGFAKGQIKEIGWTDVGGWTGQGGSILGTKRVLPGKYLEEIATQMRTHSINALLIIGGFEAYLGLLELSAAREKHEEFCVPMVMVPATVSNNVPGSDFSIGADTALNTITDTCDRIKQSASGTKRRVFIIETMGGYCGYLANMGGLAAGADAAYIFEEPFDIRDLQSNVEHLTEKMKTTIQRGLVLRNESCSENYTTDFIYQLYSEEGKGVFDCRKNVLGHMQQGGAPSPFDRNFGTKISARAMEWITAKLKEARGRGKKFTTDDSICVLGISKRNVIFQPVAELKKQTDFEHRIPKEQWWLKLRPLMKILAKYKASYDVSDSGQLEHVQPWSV


Target: T1, Flag-labeled PFKP (Phosphofructokinase, Platelet Type), 3x Flag tag (human)
Assay: affinity purification with mass spectrometry

| Molecule | binding |
| --- | --- |
| GLUT1 (SLC2A1, Solute Carrier Family 2 Member 1) (from UniProt P11166 1-492) | binds |
| AXL (AXL Receptor Tyrosine Kinase, Anexelekto; tyrosine-protein kinase receptor UFO) (from UniProt P30530 26-894) | binds |
| MCT1 (lactate transport) (protein, UniProt P53985 1-500) MPPAVGGPVGYTPPDGGWGWAVVIGAFISIGFSYAFPKSITVFFKEIEGIFHATTSEVSWISSIMLAVMYGGGPISSILVNKYGSRIVMIVGGCLSGCGLIAASFCNTVQQLYVCIGVIGGLGLAFNLNPALTMIGKYFYKRRPLANGLAMAGSPVFLCTLAPLNQVFFGIFGWRGSFLILGGLLLNCCVAGALMRPIGPKPTKAGKDKSKASLEKAGKSGVKKDLHDANTDLIGRHPKQEKRSVFQTINQFLDLTLFTHRGFLLYLSGNVIMFFGLFAPLVFLSSYGKSQHYSSEKSAFLLSILAFVDMVARPSMGLVANTKPIRPRIQYFFAASVVANGVCHMLAPLSTTYVGFCVYAGFFGFAFGWLSSVLFETLMDLVGPQRFSSAVGLVTIVECCPVLLGPPLLGRLNDMYGDYKYTYWACGVVLIISGIYLFIGMGINYRLLAKEQKANEQKKESKEEETSIDVAGKPNEVTKAAESPDQKDTDGGPKEEESPV | binds |

No constants are given. Whether binding was seen depends on the method and setting. In cells and extracts the contact can be indirect. A yes stands for co-enrichment or nearness to the bait. Other partners may have been found. Where a sequence is shown, tags or fusion partners need not be part of it.
